Substitutions are numbered along the chain they refer to. Names and notes keep the numbering of the source. These are yes or no findings as the source states them, for the method shown. Binding seen in cells or lysates may run through a third protein. Some results given as binding are weak or reduced against the parent protein; the word gives no strength. For part of these data: Sequences can lack the tags named with a protein. One block for each molecule: values may come before it.
Columns and labels:
[1] = target: T1, GST-RB, large pocket of pRB (amino acids 379 to 928), wild type (human) (UniProt P06400); assay: pull-down; recombinant GST-RB proteins incubated with whole-cell extracts from C33A cells transfected with CMV-HA-E2F3 and CMV-HA-DP1, or CMV-TAg; bound proteins detected by western blotting (12CA5 or PAb419); only the target purified
T1 sequence: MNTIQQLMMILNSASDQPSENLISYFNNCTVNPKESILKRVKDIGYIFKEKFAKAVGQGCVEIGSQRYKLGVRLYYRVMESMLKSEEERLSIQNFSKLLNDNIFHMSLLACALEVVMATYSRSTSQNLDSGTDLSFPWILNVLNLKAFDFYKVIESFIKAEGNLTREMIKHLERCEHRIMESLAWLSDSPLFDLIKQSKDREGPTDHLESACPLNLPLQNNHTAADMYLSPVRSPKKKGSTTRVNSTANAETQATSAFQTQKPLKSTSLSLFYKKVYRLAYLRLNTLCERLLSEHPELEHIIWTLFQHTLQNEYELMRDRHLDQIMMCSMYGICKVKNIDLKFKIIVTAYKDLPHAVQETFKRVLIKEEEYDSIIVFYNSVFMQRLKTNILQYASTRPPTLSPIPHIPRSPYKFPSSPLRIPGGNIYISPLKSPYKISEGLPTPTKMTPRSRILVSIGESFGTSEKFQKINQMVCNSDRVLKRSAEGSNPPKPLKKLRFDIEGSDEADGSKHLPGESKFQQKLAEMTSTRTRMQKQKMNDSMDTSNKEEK

Protein sequences, listed by entry. Tags and fused reporters are not part of them. Lines headed by an entry give the natural chain unless they say otherwise; changes in a name come on top.
UniProt O00716: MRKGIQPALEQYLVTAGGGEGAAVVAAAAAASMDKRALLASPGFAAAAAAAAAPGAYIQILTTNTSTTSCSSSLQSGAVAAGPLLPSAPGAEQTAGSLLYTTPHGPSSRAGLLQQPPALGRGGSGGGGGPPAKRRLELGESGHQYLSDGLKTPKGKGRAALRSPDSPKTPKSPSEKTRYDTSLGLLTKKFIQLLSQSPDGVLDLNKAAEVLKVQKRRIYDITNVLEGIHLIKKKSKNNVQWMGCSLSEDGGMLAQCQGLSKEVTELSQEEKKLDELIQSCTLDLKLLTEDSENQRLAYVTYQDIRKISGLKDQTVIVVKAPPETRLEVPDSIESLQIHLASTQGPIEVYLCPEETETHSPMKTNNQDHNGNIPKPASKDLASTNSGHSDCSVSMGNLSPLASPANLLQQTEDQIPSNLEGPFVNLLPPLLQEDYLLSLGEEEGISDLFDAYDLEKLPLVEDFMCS

[2] = target: T2, GST-RB^M704V, large pocket of pRB (amino acids 379 to 928) with M704V (human) (UniProt P06400); assay: as above
T2 sequence: T1 sequence with M326V

[3] = target: T3, GST-RB^ΔL, large pocket of pRB (amino acids 379 to 928) with I753A, N757A and M761A (human) (UniProt P06400); assay: as above
T3 sequence: T1 sequence with I375A, N379A, M383A

HA-E2F3/HA-DP1 = HA-E2F3/HA-DP1 (UniProt O00716); assay: co-IP; C33A cells co-transfected with CMV-RB constructs and CMV-TAg or CMV-HA-E2F3 and CMV-HA-DP1; precipitation with PAb419 (TAg) or 12CA5 (HA); bound pRB detected by western blotting with G3-245

Molecule: HA-E2F3/HA-DP1 (from UniProt O00716 1-465; Q14186 1-410) (complex)
binding [1]: binds
binding [2]: binds
binding [3]: binds

B3: pRB^M704V, full-length pRB with M704V (CMV-RB^M704V) (protein, UniProt P06400 1-928)
chain: MPPKTPRKTAATAAAAAAEPPAPPPPPPPEEDPEQDSGPEDLPLVRLEFEETEEPDFTALCQKLKIPDHVRERAWLTWEKVSSVDGVLGGYIQKKKELWGICIFIAAVDLDEMSFTFTELQKNIEISVHKFFNLLKEIDTSTKVDNAMSRLLKKYDVLFALFSKLERTCELIYLTQPSSSISTEINSALVLKVSWITFLLAKGEVLQMEDDLVISFQLMLCVLDYFIKLSPPMLLKEPYKTAVIPINGSPRTPRRGQNRSARIAKQLENDTRIIEVLCKEHECNIDEVKNVYFKNFIPFMNSLGLVTSNGLPEVENLSKRYEEIYLKNKDLDARLFLDHDKTLQTDSIDSFETQRTPRKSNLDEEVNVIPPHTPVRTVMNTIQQLMMILNSASDQPSENLISYFNNCTVNPKESILKRVKDIGYIFKEKFAKAVGQGCVEIGSQRYKLGVRLYYRVMESMLKSEEERLSIQNFSKLLNDNIFHMSLLACALEVVMATYSRSTSQNLDSGTDLSFPWILNVLNLKAFDFYKVIESFIKAEGNLTREMIKHLERCEHRIMESLAWLSDSPLFDLIKQSKDREGPTDHLESACPLNLPLQNNHTAADMYLSPVRSPKKKGSTTRVNSTANAETQATSAFQTQKPLKSTSLSLFYKKVYRLAYLRLNTLCERLLSEHPELEHIIWTLFQHTLQNEYELMRDRHLDQIVMCSMYGICKVKNIDLKFKIIVTAYKDLPHAVQETFKRVLIKEEEYDSIIVFYNSVFMQRLKTNILQYASTRPPTLSPIPHIPRSPYKFPSSPLRIPGGNIYISPLKSPYKISEGLPTPTKMTPRSRILVSIGESFGTSEKFQKINQMVCNSDRVLKRSAEGSNPPKPLKKLRFDIEGSDEADGSKHLPGESKFQQKLAEMTSTRTRMQKQKMNDSMDTSNKEEK
binding (HA-E2F3/HA-DP1): binds

Other lines, results leading:

binding (HA-E2F3/HA-DP1): binds
B1: pRB^ΔL, full-length pRB with I753A, N757A and M761A (CMV-RB^ΔL) (protein, UniProt P06400 1-928)
chain: B3 chain with V704M, I753A, N757A, M761A

binding (HA-E2F3/HA-DP1): binds
B2: retinoblastoma protein (pRB), full-length wild type (CMV-RB) (protein, UniProt P06400 1-928)
chain: B3 chain with V704M

— article PMC2859746
